Data reported in paper PMC9399600.
No constants are given. Whether binding was seen depends on the method and setting. Binding seen in cells or lysates may run through a third protein. Where a sequence is shown, tags or fusion partners need not be part of it.

Target: T1, Flag-RIG-I (retinoic acid-inducible gene I) (UniProt O95786)
T1 sequence: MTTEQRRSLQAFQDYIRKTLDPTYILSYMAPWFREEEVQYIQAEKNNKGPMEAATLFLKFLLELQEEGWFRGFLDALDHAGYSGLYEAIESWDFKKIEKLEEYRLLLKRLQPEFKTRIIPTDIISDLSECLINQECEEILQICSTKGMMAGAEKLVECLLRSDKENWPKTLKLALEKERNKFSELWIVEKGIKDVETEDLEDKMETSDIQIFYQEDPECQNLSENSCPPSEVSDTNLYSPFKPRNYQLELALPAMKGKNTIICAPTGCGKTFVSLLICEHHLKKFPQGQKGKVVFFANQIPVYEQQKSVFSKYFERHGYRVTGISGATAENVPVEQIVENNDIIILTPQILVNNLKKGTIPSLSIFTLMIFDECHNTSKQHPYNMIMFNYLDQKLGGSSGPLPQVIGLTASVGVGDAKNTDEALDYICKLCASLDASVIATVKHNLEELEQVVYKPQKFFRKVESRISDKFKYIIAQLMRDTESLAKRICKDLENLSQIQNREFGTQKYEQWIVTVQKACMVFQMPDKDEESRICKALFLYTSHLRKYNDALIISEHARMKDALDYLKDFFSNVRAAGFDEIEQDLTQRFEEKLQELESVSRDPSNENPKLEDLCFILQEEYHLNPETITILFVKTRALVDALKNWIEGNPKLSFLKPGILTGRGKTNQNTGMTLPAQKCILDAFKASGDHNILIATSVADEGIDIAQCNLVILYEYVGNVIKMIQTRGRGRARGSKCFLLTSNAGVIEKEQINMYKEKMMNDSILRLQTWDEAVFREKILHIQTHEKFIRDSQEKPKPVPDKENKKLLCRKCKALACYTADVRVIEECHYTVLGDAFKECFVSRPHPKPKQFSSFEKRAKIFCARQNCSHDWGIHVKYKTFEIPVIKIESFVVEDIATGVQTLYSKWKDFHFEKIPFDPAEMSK
Test: co-IP; HEK-293T cells co-transfected with HA-DDX21 and Flag-RIG-I; lysis buffer 50 mM Tris-HCl, 150 mM NaCl, 1% NP-40, 10% glycerin, 0.1% SDS, 2 mM Na2EDTA; precipitated with anti-HA (methods) or anti-Flag (legend of Figure 5D) antibody and protein A+G agarose at 4°C; western blot with anti-Flag and anti-HA

binding: no binding
B1: HA-DDX21 (DEAD-box RNA helicase 21) (protein, UniProt Q9NR30 1-783)
chain: MPGKLRSDAGLESDTAMKKGETLRKQTEEKEKKEKPKSDKTEEIAEEEETVFPKAKQVKKKAEPSEVDMNSPKSKKAKKKEEPSQNDISPKTKSLRKKKEPIEKKVVSSKTKKVTKNEEPSEEEIDAPKPKKMKKEKEMNGETREKSPKLKNGFPHPEPDCNPSEAASEESNSEIEQEIPVEQKEGAFSNFPISEETIKLLKGRGVTFLFPIQAKTFHHVYSGKDLIAQARTGTGKTFSFAIPLIEKLHGELQDRKRGRAPQVLVLAPTRELANQVSKDFSDITKKLSVACFYGGTPYGGQFERMRNGIDILVGTPGRIKDHIQNGKLDLTKLKHVVLDEVDQMLDMGFADQVEEILSVAYKKDSEDNPQTLLFSATCPHWVFNVAKKYMKSTYEQVDLIGKKTQKTAITVEHLAIKCHWTQRAAVIGDVIRVYSGHQGRTIIFCETKKEAQELSQNSAIKQDAQSLHGDIPQKQREITLKGFRNGSFGVLVATNVAARGLDIPEVDLVIQSSPPKDVESYIHRSGRTGRAGRTGVCICFYQHKEEYQLVQVEQKAGIKFKRIGVPSATEIIKASSKDAIRLLDSVPPTAISHFKQSAEKLIEEKGAVEALAAALAHISGATSVDQRSLINSNVGFVTMILQCSIEMPNISYAWKELKEQLGEEIDSKVKGMVFLKGKLGVCFDVPTASVTEIQEKWHDSRRWQLSVATEQPELEGPREGYGGFRGQREGSRGFRGQRDGNRRFRGQREGSRGPRGQRSGGGNKSNRSQNKGQKRSFSKAFGQ
